Results reported in publication PMC11260468.
No constants are given. Whether binding was seen depends on the method and setting. A result given as binding can be weak or reduced; the word gives no strength.

Sequences of proteins named here, by UniProt entry; tags and fusion partners are left off. A change or cut given only in a name is not applied to a line headed by its entry.
UniProt Q9LK61: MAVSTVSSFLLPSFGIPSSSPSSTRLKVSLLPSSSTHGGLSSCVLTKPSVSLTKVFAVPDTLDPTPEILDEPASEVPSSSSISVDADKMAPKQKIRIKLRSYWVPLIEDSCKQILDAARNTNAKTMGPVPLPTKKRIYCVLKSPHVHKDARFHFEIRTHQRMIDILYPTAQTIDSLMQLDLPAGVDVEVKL
UniProt Q8W4I6: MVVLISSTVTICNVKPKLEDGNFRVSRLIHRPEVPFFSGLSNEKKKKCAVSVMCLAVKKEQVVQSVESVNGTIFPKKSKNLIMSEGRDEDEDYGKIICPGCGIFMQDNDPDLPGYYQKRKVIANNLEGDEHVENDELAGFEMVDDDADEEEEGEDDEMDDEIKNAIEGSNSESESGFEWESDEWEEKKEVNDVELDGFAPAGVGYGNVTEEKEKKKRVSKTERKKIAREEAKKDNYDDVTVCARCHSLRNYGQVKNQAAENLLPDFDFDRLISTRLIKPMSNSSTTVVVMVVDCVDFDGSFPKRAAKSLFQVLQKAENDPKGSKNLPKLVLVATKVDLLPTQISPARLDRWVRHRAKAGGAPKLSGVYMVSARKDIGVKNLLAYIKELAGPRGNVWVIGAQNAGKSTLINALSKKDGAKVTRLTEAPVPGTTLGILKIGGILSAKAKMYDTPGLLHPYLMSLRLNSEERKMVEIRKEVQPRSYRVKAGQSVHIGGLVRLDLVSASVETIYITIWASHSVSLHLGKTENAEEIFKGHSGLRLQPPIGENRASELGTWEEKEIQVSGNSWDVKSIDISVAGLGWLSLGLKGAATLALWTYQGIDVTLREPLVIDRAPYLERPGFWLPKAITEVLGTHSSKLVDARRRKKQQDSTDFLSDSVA

Molecular target: His-uS10c recombinant protein (Arabidopsis) (UniProt Q9LK61)
Test: pull-down; purified GST-BPG2 and His-uS10c mixed in 1X PBS, 23°C 60 min; captured on Ni-NTA magnetic beads 40 min at 4°C; ten washes (25 mM Tris-HCl pH 7.5, 2 mM EDTA, 100 mM NaCl); immunoblot; both purified

binding: binds
Substance: GST-BPG2 fusion protein (from UniProt Q8W4I6)
